Reference: article doi:10.1101/2021.06.01.446555
No constants are given. Whether binding was seen depends on the method and setting. In cells and extracts the contact can be indirect. These calls come from enrichment with a bait or labelling near it, and not all partners need be listed.

The chains behind the UniProt entries cited, without tags or fusion partners. Where a name states a change or a piece, a line headed by the entry shows the natural chain unless it says otherwise.
UniProt P0DTC3, whole entry: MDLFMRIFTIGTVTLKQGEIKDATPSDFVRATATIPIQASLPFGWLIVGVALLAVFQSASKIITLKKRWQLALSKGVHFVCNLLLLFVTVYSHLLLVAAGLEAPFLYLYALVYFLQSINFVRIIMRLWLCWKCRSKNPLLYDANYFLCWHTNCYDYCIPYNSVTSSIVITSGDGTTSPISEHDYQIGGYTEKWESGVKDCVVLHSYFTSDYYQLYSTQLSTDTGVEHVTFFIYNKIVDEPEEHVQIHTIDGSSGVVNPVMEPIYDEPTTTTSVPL
UniProt Q9NQX7, whole entry, stated change not applied: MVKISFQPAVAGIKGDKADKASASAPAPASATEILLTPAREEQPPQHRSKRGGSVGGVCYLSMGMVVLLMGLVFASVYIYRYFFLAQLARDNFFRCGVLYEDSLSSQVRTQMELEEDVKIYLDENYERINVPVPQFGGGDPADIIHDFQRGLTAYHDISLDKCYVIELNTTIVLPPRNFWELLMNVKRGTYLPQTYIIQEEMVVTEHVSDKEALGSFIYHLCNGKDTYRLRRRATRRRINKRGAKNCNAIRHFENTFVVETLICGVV

The substances below were run against ORF3a-linker-GFP (SARS-CoV-2 ORF3a tagged with GFP) (SARS-CoV-2) (UniProt P0DTC3) (assay: proximity labelling).
With BET1L (from UniProt Q9NYM9 1-111) the binding was “binds”. EPHA2 (from UniProt P29317 24-976) was tested, and the binding was “binds”. With ITM2C (from UniProt Q9NQX7) the binding was “binds”. For RAB7A (from UniProt P51149 1-207), the binding was “binds”. For “RNF5 (E3 ubiquitin ligase) (from UniProt Q99942 1-180)”, the binding was “binds”. SAR1A (from UniProt Q9NR31 1-198) was tested, and the binding was “binds”. For SEC63 (from UniProt Q9UGP8 1-760), the binding was “binds”. SLC16A1 (from UniProt P53985 1-500) was tested, and the binding was “binds”. SLC22A5 (from UniProt O76082 1-557) was tested, and the binding was “binds”. In the case of VAMP3 (from UniProt Q15836 1-100), the binding is reported as “binds”. For “ZC3HAV1 (CCCH-type zinc-finger antiviral protein) (from UniProt Q7Z2W4 1-902)”, the binding was “binds”.
